Assay results: PubChem BioAssay AID662 (National Center for Advancing Translational Sciences (NCATS), 2007)
Several values for one entry are separate records, joined by “and”; a condition that tells them apart may be missing. Equal values may be shown once. The list shows a part of the results. These are further read-outs of the screen, such as a control signal, another cell line or another target. No call is given for them. The list favours compounds with an active or inconclusive main result. Potencies come from curve fits of mixed quality, noted in brackets.

Assay: Cell signaling CRE-BLA (Fsk stim)
Details: CHO CRE-bla reporter (cAMP response element driving beta-lactamase), forskolin EC10, beta-lactamase ratio; measured here: 460 nm blue channel
Procedure, shortened: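 The 460nm/530nm emission ratio after CCF4 loading defined %Activity, from which AC50 values were obtained. CRE-bla CHO cells received compound dilution series together with an EC10 level of NKH 477 for 3 hours at 37 degrees Celsius.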

Compound	AC50
CCc1ccc(-c2nc(CN3CCC(C(=O)NCc4ccco4)CC3)c(C)o2)cc1	0.0158 µM [falling, full curve, poor fit]
COC(=O)c1c(C(=O)OC)c2cc(C)ccn2c1Cl	12.6 µM [rising, partial curve]
O=C(c1ccc2c(=O)n(CC3CCCO3)c(=S)[nH]c2c1)N1CCN(c2ccccc2)CC1 (stereo unspecified)	0.501 µM [falling, partial curve]
O=C(NCc1ccco1)c1cnn2c1NC(c1ccc(Br)cc1)CC2C(F)(F)F (stereo unspecified)	10 µM [falling, single point]
FC(F)(F)c1cc(-c2ccco2)nc(-n2cnc3ccccc32)n1	0.00794 µM [falling, full curve, poor fit]
FC(F)(F)c1ccccc1-c1nc(NCCN2CCOCC2)c2ccccc2n1	5.01 µM [rising, single point]
CCCCC(=NCCO)C1=C(O)C(C(=O)OC)C(C)(C)CC1=O (stereo unspecified)	1.26 µM [falling, partial curve]
O=C(Cc1nc2ccccc2s1)c1ccc(O)cc1O	12.6 µM [rising, single point]
CCCc1nc2ccccc2c(=O)n1/N=C/c1ccc(O)c(O)c1	3.98 µM [falling, full curve]
COc1ccc(-c2cc(C(=O)NCCN3CCOCC3)c3ccccc3n2)c(OC)c1	25.1 µM [rising, single point]
COc1cccc(Cn2c(=O)c(-c3cccs3)nc3cnc(N(C)C)nc32)c1	5.01 µM [rising, partial curve]
COc1ncc2nc(CCc3ccccc3)c(=O)n(Cc3ccc(F)cc3)c2n1	12.6 µM [rising, partial curve]
CCC(=O)NCCSc1c[nH]c2ccccc12	3.98 µM [falling, full curve, poor fit]
COc1cccc(Cn2c(=O)c(-c3cccs3)nc3cnc(OCc4ccccc4)nc32)c1	5.01 µM [rising, partial curve]
COCCn1c(=O)c(-c2cccs2)nc2cncnc21	10 µM [rising, partial curve]
COc1cc2c(c(OC)c1OC)-c1ccc(OC)c(=O)cc1[C@H](NC(C)=O)CC2	12.6 µM [rising, partial curve] and 2.51 µM [rising, full curve] and 2 µM [rising, full curve]
c1ccc(OCCOc2ncnc3sccc23)cc1	0.01 µM [falling, partial curve, poor fit]
CN(C)c1ncnc2ccc(-c3ccccc3C(F)(F)F)cc12	10 µM [rising, partial curve]
Cc1ccc(CN(C)C(=O)C2CCCN2C(=O)c2cccs2)o1 (stereo unspecified)	2.51 µM [falling, partial curve]
O=C1c2ccccc2CC1Sc1nnc(-c2ccncc2)o1 (stereo unspecified)	20 µM [falling, partial curve, poor fit]
CNc1nc(-c2c(C)noc2C)nc2ccccc12	5.01 µM [rising, full curve, poor fit]
O=C(Nc1nc(-c2nc3ccccc3s2)cs1)C1COc2ccccc2O1 (stereo unspecified)	3.98 µM [rising, full curve]

Two neighbouring compounds out of the list so far, quoted:
Compound	AC50
COc1cc2c(c(OC)c1OC)-c1ccc(OC)c(=O)cc1[C@H](NC(C)=O)CC2	12.6 µM [rising, partial curve] and 2.51 µM [rising, full curve] and 2 µM [rising, full curve]
c1ccc(OCCOc2ncnc3sccc23)cc1	0.01 µM [falling, partial curve, poor fit]

Additional entries

Compound	AC50
COCCCNC(=O)CCc1nc2cccnc2n1Cc1ccccc1	5.01 µM [rising, single point]
Fc1ccc(-c2nnc(CN3CCC(c4nc5ccccc5s4)CC3)o2)cc1	5.01 µM [rising, single point]
COc1cc(-c2nc3cnccc3n2C)cc(OC)c1OC	12.6 µM [rising, partial curve]
O=C(O)c1cccnc1SC1CC(=O)N(Cc2ccccc2)C1=O (stereo unspecified)	0.00398 µM [falling, full curve, poor fit]
C[C@](Cc1ccc(O)c(O)c1)(NN)C(=O)O	12.6 µM [falling, single point]
O=C(CSc1nc2ncccc2[nH]1)NCc1ccccc1	0.316 µM [rising, partial curve, poor fit]
CCOc1ccc(S(=O)(=O)n2c(C)nc3ccccc32)cc1	3.16 µM [rising, single point]
O=C(CCN1C(=O)C2C3C=CC(C3)C2C1=O)Nc1c(F)cc(F)cc1Br (stereo unspecified)	0.316 µM [falling, full curve]
Cc1cc(Nc2nc3c(c(=O)n(C)c(=O)n3C)n2C)n(-c2ccc(Cl)cc2)n1	12.6 µM [rising, single point]
COc1ccc(N2Cc3cccc(C(=O)N4CCOCC4)c3C2=O)cc1	0.00398 µM [falling, full curve, poor fit]
O=C(CSc1nc2c(cnn2-c2ccc(F)cc2)c(=O)[nH]1)N1CCCCC1	10 µM [rising, partial curve]
CCOC(=O)N1CCC(NC(=O)Cn2cccc2C(=O)c2ccccc2)CC1	0.631 µM [falling, partial curve]
COc1ccc(-c2nnn(CCc3nn[nH]n3)n2)cc1OC	12.6 µM [falling, single point]
CC(C)OC(=O)CC(=O)CSc1nc2c(cc1C#N)CCC2	12.6 µM [rising, partial curve]
O=C(NCCN1CCCC1=O)Nc1ccccc1	1 µM [rising, partial curve]
CCOC(=O)c1[nH]c(C)c(C(=O)Nc2cc(OC)ccc2OC)c1C	10 µM [rising, partial curve]
O=c1nc2c(-c3ccccc3F)n[nH]n2c2ccccc12	0.0794 µM [rising, full curve]
COCCn1cnc2c(c1=O)c1nc3ccccc3nc1n2/N=C/c1cccc(OC)c1OC	15.8 µM [rising, partial curve]
CC1(C)Cc2c(c(N3CCOCC3)nc3sc(C(=O)N4CCCCC4)c(N)c23)CO1	3.98 µM [rising, partial curve]
CC1CCc2cccc3c2N1c1cc(C#N)c(C#N)cc1O3 (stereo unspecified)	10 µM [rising, partial curve]
CN(C)C(=O)c1nc(C#N)c(N(C)C)o1	0.126 µM [falling, single point]
N#CCCn1c(=O)cnc2cnc(OCc3ccccc3)nc21	12.6 µM [rising, partial curve]

Compound	AC50
CCCc1ccc(OCc2ccc(C(=O)N3CCN(c4ccccn4)CC3)o2)c(OC)c1	25.1 µM [falling, single point]
Cc1nc(NC2CCCCC2)c2nc(-c3ccccc3)n(CCCN3CCOCC3)c2n1	10 µM [rising, partial curve]
Cc1cc(C(F)F)n2ncc(C(=O)NCc3ccccc3)c2n1	12.6 µM [rising, partial curve]
CCCn1c(NC(=O)c2ccc(Cl)c(S(=O)(=O)N3CCCC3)c2)nc2ccccc21	0.398 µM [falling, partial curve]
C=C(C)Cn1c(CCNC(=O)C(C)(C)C)nc2ccccc21	0.0126 µM [falling, full curve, poor fit]
Cc1ccc(S(=O)(=O)c2cc3c(=O)n4ccccc4nc3n(Cc3ccco3)c2=N)cc1C	10 µM [rising, partial curve]
CCCc1nc(N)c(C#N)c(N)c1C#N	12.6 µM [rising, partial curve]
COc1cc(C2C(C#N)=C(N)Oc3c2oc(CO)cc3=O)ccc1OC(C)C (stereo unspecified)	0.251 µM [rising, full curve, poor fit]
Cc1ccc2c(c1)-c1c(cnn1CC(=O)N1CCCN(Cc3ccccc3F)C1)CO2	10 µM [falling, single point]
COc1cccc(-c2nc(C(N)=O)c3[nH]c(=O)n(-c4ccccc4)c3n2)c1OC	10 µM [rising, partial curve]
Cc1cccc(NC(=O)c2oc3ccc(S(=O)(=O)N4CCOCC4)cc3c2C)c1C	3.16 µM [falling, partial curve]
O=C(c1ccncc1)N1CCC2(CCCN(c3ccc(-c4ccccc4)cc3)C2)CC1	25.1 µM [rising, single point]
CCCCNS(=O)(=O)c1ccc2nc(SCC(=O)Nc3sccc3C#N)[nH]c2c1	25.1 µM [falling, single point]
O=P(O)(CCCP(=O)(O)CCc1ccccc1)CCc1ccccc1	6.31 µM [falling, full curve, poor fit]
Cc1ccc(OCC(O)CN2CCN(CC(O)COc3ccc(C)cc3Cl)CC2)c(Cl)c1 (stereo unspecified)	0.631 µM [falling, full curve, poor fit]
COc1ccc(CNc2nc(-c3cccc(C#N)c3)nc3ccccc23)c(OC)c1	1.26 µM [rising, full curve]
O=C1c2ccccc2C(=O)N1CCCc1nc2ccccc2c(=O)n1-c1cccnc1	10 µM [rising, partial curve]
O=c1c(-c2cccs2)nc2cnc(N3CCNCC3)nc2n1C1CC1	7.94 µM [rising, partial curve]
c1ccc2c(c1)ncn2Cc1nnc2sc(-c3ccc4c(c3)OCO4)nn12	12.6 µM [rising, single point]
CCCn1nc(NC(=O)c2cccs2)c2cc3cc(OC)ccc3nc21	10 µM [rising, partial curve]
CC12CCC(C(=O)Nc3ccc4c(c3)OCCO4)(OC1=O)C2(C)C (stereo unspecified)	1.58 µM [rising, partial curve]
O=C(OCC(=O)N1c2ccccc2Sc2ccccc21)C1CC(=O)N(Cc2ccco2)C1 (stereo unspecified)	25.1 µM [falling, single point]
